{"source": "patent US20260234207A1", "about": "“Keratin YK93-8, and Preparation Method Therefor, Pharmaceutical Composition Thereof and Use Thereof” (INSTITUTE OF MATERIA MEDICA, CHINESE ACADEMY OF MEDICAL …, priority 2022, published 2026)", "molecules": {"B1": {"name": "YK93-8: keratin with the amino acid sequence shown in SEQ ID NO.1, expressed in Escherichia coli, band around 63 KD; protein of Example 3 (protein, listed as Manis pentadactyla)", "chain": "MSCRSYRVSSGRQIGNFSSCSAVMPQSLSRFRASSVSCRSGPGFRGLGGFGSRSVIAFGSCPPRMAAVGPRPIRCGVGFSAGSGLAFGLGDSCGAGLGFGTGSGLGYGFGGPGFGYRIGGVGVPAAPSITAVTVNQSLLTPLNLEIDPNAQRVKRDEKEQIKTLNNKFASFIDKVRFLEQQNKLLETKWNFLQDQKGVQSNLEPLFENYVANLRRQLDIVSSDQARLETERNNMQDVLEGFKKKYEEEVVFRANAENEFVALKKDVDAAFLNKSDLEANVDALIQEIDFLKNLYMAEIQLLQSHISDTSVIVKMDNSRDLNFDGIIAEVKAQYEEVARRSRADAEAWYQTKYEEMRMTAGQHSDNLRNTRDEINELTRVIQRLKAEIEHTKAQRAKLEAAIAEAEQQGEAALNDAKCKLADLEAALQQAKQDMARQLREYQELMNIKLALDIEIATYRRLLEGEEIRICEGVGPVNISVSSSRGGVVCGPEPLLTSSTLSRGGVTFSGGSSIRSSGACGLSLGGSRVVAAGGDVLSAGSRGGSVLVGDACAPSIPCPLPTDGGFSSCSGGRSSLGSSVRFVSTTTSRRTKY"}}, "tested_on": "Lewis lung cancer", "conditions": "0.5 g/kg, vs normal control group, P<0.05", "protocol": "Subcutaneous inoculation of Lewis cell suspension to replicate mouse Lewis lung cancer model: The Lewis tumor tissue was ground into a suspension with a glass homogenizer, the tumor suspension was aspirated with a syringe, the number of live cells was calculated, the concentration of the cells was adjusted to 2.6*10^6/ml with physiological saline, and then the suspension was injected to the left armpit of the mouse with 0.2 ml/mouse. On the next day, the mice were randomly divided into normal control group, cyclophosphamide (100 mg/kg) group, and YK93-8 (0.5 g/kg) group. Cyclophosphamide was injected intraperitoneally for single time, mice in YK93-8 group were given intragastric administration every day for 10 consecutive days, mice in the normal control group were orally given the equal volume of sodium carboxymethyl cellulose. On the day of the treatment, the weight was measured, 20 μl of blood was obtained from the orbital blood and the routine blood analysis was performed. The tumor blocks were stripped, weighed and photographed, and the tumor suppression rate was calculated.\nThe tumor suppression rate [(The average weight of the tumor in the normal control group—the average weight of the tumor in the experimental group)/The average weight of the tumor in the normal control group×100%] and the average value, standard deviation and standard errors of tumor weight were calculated."}
{"molecule": "B1", "values": [{"measurement": "number of neutrophils (blood routine test)", "setting": "peripheral blood", "value": "significantly reduce"}, {"measurement": "number of monocytes in peripheral blood", "value": "increase"}]}
